In publication PMC3499479:
These are yes or no findings as the source states them, for the method shown. Binding seen in cells or lysates may run through a third protein. A result given as binding can be weak or reduced; the word gives no strength. Where a sequence is shown, tags or fusion partners need not be part of it.

Sequences of proteins named here, by UniProt entry; tags and fusion partners are left off. A change or cut given only in a name is not applied to a line headed by its entry.
UniProt A8MQG7: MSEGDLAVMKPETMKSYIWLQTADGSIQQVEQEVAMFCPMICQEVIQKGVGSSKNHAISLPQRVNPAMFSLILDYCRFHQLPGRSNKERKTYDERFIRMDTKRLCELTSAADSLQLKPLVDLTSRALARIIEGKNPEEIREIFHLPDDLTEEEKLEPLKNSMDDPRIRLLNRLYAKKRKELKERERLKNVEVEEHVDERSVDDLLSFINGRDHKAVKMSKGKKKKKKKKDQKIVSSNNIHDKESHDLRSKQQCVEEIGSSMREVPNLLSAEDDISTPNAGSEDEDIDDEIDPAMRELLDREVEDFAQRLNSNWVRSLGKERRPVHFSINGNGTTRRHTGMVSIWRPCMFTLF

Columns and labels:
Assay in all cases: split reporter; FBX in pSCYCE (SCFP3A 174-328), ASK in pSCYNE (SCFP3A 1-173), CaMV 35S promoter; Agrobacterium GV3101 infiltrated into Nicotiana tabacum leaves, 28 C for 3 days; fluorescence microscopy
[1] = molecular target: T1, F-box (FBX) protein At3g03360, BiFC fusion (Arabidopsis thaliana) (UniProt Q84W80)
T1 sequence: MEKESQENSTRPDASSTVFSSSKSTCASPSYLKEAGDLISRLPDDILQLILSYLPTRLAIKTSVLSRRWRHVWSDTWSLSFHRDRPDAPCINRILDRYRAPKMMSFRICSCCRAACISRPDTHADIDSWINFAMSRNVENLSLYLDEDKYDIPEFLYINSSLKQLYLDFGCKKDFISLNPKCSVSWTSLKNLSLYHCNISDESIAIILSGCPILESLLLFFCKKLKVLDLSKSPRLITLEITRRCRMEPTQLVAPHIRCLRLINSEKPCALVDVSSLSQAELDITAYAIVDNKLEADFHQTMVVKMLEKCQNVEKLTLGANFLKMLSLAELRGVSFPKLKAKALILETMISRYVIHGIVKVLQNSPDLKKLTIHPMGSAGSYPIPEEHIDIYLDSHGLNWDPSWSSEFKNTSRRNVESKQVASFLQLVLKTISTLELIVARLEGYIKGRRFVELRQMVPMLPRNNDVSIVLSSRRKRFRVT

[2] = molecular target: T2, F-box (FBX) protein At5g21040, BiFC fusion (Arabidopsis thaliana) (UniProt Q94AD8)
T2 sequence: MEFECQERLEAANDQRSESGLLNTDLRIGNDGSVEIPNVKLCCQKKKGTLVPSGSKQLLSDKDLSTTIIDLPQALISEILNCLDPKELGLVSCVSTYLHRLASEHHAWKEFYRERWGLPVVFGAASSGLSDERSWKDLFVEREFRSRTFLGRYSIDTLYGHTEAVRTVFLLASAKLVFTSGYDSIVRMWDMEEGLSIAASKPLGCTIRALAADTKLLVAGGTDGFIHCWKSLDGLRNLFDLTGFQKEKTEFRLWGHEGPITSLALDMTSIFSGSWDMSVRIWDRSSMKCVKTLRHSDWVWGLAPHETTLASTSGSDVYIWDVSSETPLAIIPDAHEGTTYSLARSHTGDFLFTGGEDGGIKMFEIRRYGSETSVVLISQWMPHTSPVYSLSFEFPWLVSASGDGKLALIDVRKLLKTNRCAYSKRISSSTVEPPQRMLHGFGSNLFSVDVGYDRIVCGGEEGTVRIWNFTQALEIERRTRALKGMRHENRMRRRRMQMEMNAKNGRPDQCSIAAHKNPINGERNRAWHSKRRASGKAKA

[3] = molecular target: T3, F-box (FBX) protein At1g30790, BiFC fusion (Arabidopsis thaliana) (UniProt Q9SY20)
T3 sequence: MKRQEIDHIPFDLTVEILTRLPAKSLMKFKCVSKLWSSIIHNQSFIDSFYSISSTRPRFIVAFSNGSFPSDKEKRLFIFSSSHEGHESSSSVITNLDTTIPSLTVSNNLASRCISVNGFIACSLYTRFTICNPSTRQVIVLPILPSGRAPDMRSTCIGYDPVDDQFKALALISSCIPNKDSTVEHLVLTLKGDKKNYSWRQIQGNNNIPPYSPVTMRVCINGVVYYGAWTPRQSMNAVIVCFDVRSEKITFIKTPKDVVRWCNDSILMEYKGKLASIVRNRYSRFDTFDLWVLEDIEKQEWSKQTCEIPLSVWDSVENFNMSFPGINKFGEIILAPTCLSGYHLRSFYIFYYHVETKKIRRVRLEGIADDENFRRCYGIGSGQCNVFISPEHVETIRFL

[4] = molecular target: T4, F-box (FBX) protein At3g04660, BiFC fusion (Arabidopsis thaliana) (UniProt Q9SR08)
T4 sequence: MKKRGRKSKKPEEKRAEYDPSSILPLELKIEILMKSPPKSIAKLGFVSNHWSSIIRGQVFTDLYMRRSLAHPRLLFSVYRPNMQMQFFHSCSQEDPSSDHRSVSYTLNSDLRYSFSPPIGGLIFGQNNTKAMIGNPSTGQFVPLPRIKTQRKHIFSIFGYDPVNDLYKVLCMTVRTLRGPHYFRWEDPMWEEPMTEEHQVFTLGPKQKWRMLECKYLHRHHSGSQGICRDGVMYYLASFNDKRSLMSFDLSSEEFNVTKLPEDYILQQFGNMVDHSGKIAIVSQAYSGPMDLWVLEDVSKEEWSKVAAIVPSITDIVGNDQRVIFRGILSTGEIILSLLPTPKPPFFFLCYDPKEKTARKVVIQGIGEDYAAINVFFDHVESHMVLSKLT

Measured: binding

Arabidopsis SKP1-LIKE 7 (ASK7), BiFC fusion
binds: [1] | [2]

Arabidopsis SKP1-LIKE 5 (ASK5), BiFC fusion
binds: all assays above

Arabidopsis SKP1-LIKE 20B (ASK20B), BiFC fusion (from UniProt A8MQG7)
binds: all assays above

Arabidopsis SKP1-LIKE 20A (ASK20A), BiFC fusion (from UniProt A8MQG7)
binds: all assays above

Arabidopsis SKP1-LIKE 8 (ASK8), BiFC fusion
binds: [3] | [1] | [4]
